# Source: patent publication US5932425A, “Compositions and methods for modulating cellular NF-κB activation” (Signal Pharmaceuticals, Inc., priority 1997, dated 1999)
# Part of at least one peptide drawing is inferred or uncertain, most often the ends. No end group written: not given here.
# Test system: IκB E3 ubiquitin ligase
# Assay: HeLa lysate fractionated over peptide-Sepharose columns, flow-through assayed for pIκBα conjugation
# Assay type: binding, human
# Settings: peptide coupled to NHS-Sepharose at 2 mg/ml, FIG. 3A
sequence,measurement,value
CKKERLLDDRHDAGLDAMKDEE [p21 S/A],IκBα specific conjugation capacity of column flow-through fraction,retained full IκBα conjugation capacity
